Results as given in patent US20190151294A1, “TREATMENT OF ALCOHOLISM AND DEPRESSION AND/OR DYSPHORIC MOOD USING IBUDILAST” (MEDICINOVA, INC., priority 2016, published 2019).

System: non-treatment-seeking individuals with AUD
Assay: Phase 1b study: stress reactivity assessment (SR)
Assay type: in vivo, human
Conditions: 50 mg BID
From the text: Personal information collected at the time of admission (day 1) to the CRTC was used to generate personalized scripts of neutral and stressful conditions. Participants were asked to identify a recent stressful experience and to rate them on a 0 to 10 Likert scale, where a rating of 10 is considered to be the most stressful experience. Only stressful events rated≥8 were used in script development. Data on physical symptoms associated with the stressful and neutral events were also collected for script development.
During the study, each exposure consisted of 5-minute tape-recorded scripts recounting the recent stressful (or neutral) events in the participants' lives, including cognitions and physical feelings. […]
The following measures of mood, urge to drink, and physiological reactivity were administered at baseline and post-imagery for both the stress and neutral conditions: (1) The Profile of Mood States, Short Version (POMS) collected data on (a) positive and negative mood; (2) The Alcohol Urge Questionnaire (AUQ) measured subjective levels of alcohol cravings at the present moment (i.e., following stress imagery); (3) Cortisol levels were assessed by collecting saliva samples and heart rate and blood pressure were measured using a Dynamap Adult Vital Signs Monitor. […]

`CC(C)C(=O)c1c(C(C)C)nn2ccccc12` [ibudilast, Ibudilast] was tested, and the “cortisol level vs. placebo” value (p=0.07, FIG. 7) was “modest increase” and the “cortisol reactivity to the stressor” value (saliva samples) was “did not affect”.
